Record: PubChem BioAssay AID504784 (Drosophila RNAi Screening Center, 2011)

- Test: 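Fly genes whose silencing alters how much lipid cells keep in droplets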 (primary screen)
- Cell system: Drosophila Kc167 embryonic cells
- Knock-down reagent: long dsRNA against Drosophila genes, about 250 ng dsRNA per well
- Timing: 4 days
- Conditions: cells fed 400 µM oleic acid bound to BSA
- Measurement: 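Cells imaged and segmented; ratio of lipid droplet area to nuclear area, log-transformed, then normalised as a B-score over the screen; higher means more stored lipid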
- Scale: droplet/nuclear area B-score: higher = more stored lipid (overstorage)
The screen tested about 17,000 reagents; shown is an unselected part of those that have a named target and a result. 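Each column is one replicate's B-score; the combined score over replicates was not deposited, so single values may mislead.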 Reagents against one gene are numbered here. A plus sign joins genes that one reagent is predicted to hit. Not all columns of the deposit are shown.

Gene | reagent no. | droplet/nuclear area B-score, replicate 1 | droplet/nuclear area B-score, replicate 2
CG12017 | 1 | 1.54 | 0.0498
Ipk2 (Inositol phosphate kinase 2) | 1 | 0.742 | -0.0375
NdufA3 (NADH:ubiquinone oxidoreductase subunit A3) | 1 | -1.03 | -0.0189
Scm (Sex comb on midleg) | 1 | 0.32 | -0.774
PMP34 (Peroxisomal Membrane Protein 34) | 1 | -1.56 | -0.0993
Inx5 (Innexin 5) | 1 | 0.0686 | -0.755
CG14630 | 1 | -1.88 | -0.477
CG14630 | 2 | -1.15 | -0.0848
CG9902 | 1 | 0.646 | 0.966
garz (gartenzwerg) | 1 | 3.24 | -0.172
Or23a (Odorant receptor 23a) | 1 | -0.73 | -0.0432
Wbp2 (WW domain binding protein 2) | 1 | 3.87 | 1.12
LysRS (Lysyl-tRNA synthetase) | 1 | -0.897 | -1.1
CG30460 | 1 | 0.391 | -2.6
CG30460 | 2 | -1.43 | -1.51
CG30460 | 3 | -0.112 | -1.63
CG5112 | 1 | 1.4 | -0.00339
cpa (capping protein alpha) | 1 | 1.13 | 1.08
thetaTry (thetaTrypsin) | 1 | -0.0199 | -0.768
fws (four way stop) | 1 | -0.145 | 0.406
Kap3 (Kinesin associated protein 3) | 1 | 0.916 | –
JIL-1 (JIL-1 kinase) | 1 | 0.138 | -1.11
RpL12 (Ribosomal protein L12) | 1 | 7.69 | 9.76
Dhc62B (Dynein heavy chain at 62B) | 1 | 0.304 | 2.15
CG32856 | 1 | 0.883 | -0.0441
cora (coracle) | 1 | -0.444 | 0.493
CG31386 (retired record) | 1 | 0.556 | 0.0455
CG31386 (retired record) | 2 | -0.318 | -0.0529
betaTub65B (beta-Tubulin at 65B) | 1 | -0.94 | 1.16
lncRNA:CR32385 (long non-coding RNA:CR32385) | 1 | -0.359 | 1.29
CG10737 | 1 | 0.855 | -0.171
CG4842 | 1 | 0.629 | 0.413
ru (roughoid) | 1 | 0.305 | 0.0199

A run of entries taken from the entries so far, as a working copy:
Gene | reagent no. | droplet/nuclear area B-score, replicate 1 | droplet/nuclear area B-score, replicate 2
Dhc62B (Dynein heavy chain at 62B) | 1 | 0.304 | 2.15
CG32856 | 1 | 0.883 | -0.0441
cora (coracle) | 1 | -0.444 | 0.493
CG31386 (retired record) | 1 | 0.556 | 0.0455
CG31386 (retired record) | 2 | -0.318 | -0.0529
betaTub65B (beta-Tubulin at 65B) | 1 | -0.94 | 1.16
lncRNA:CR32385 (long non-coding RNA:CR32385) | 1 | -0.359 | 1.29
CG10737 | 1 | 0.855 | -0.171
CG4842 | 1 | 0.629 | 0.413

The list goes on:
Gene | reagent no. | droplet/nuclear area B-score, replicate 1 | droplet/nuclear area B-score, replicate 2
flfl (falafel) | 1 | -7.48 | -3.9
TpnC25D (Troponin C at 25D) | 1 | -0.415 | 0.0578
lost | 1 | -1.82 | -0.886
lost | 2 | 0.521 | -2.38
lost | 3 | 3.46 | -1.78
hpRNA:CR18854 + IP3K1 | 1 | -0.0492 | 0.0643
aru (arouser) | 1 | 1.07 | 0.0349
aru (arouser) | 2 | 2.85 | -1.22
CG7785 | 1 | -1.21 | -0.161
ImpL2 (Ecdysone-inducible gene L2) | 1 | 0.00925 | 0.0997
tej (tejas) | 1 | -2.53 | 0.00238
Atac1 (Ada2a-containing complex component 1) | 1 | -0.122 | -0.0153
CG42380 + CG42379 + PIG-M + 1 more | 1 | 3.49 | 3.72
CG42380 + CG42379 + PIG-M + 1 more | 2 | 1.16 | -0.957
CG4645 | 1 | -0.0254 | -0.0254
CG12617 | 1 | 0.2 | -0.00213
CR15280 (pseudo) | 1 | 2.2 | 2.05
CG15169 | 1 | 0.255 | -0.175
CG1607 | 1 | -0.643 | –
St1 (Sulfotransferase 1) | 1 | 0.0764 | 0.678
CG9626 | 1 | 1.96 | -0.0099
raw | 1 | -0.185 | 3.96
raw | 2 | 2.53 | 2.1
mRpL49 (mitochondrial ribosomal protein L49) | 1 | 0.163 | 1.08
Nrd1 (Nardilysin) | 1 | 0.213 | -0.13
GstE5 (Glutathione S transferase E5) | 1 | -1.11 | 1.28
CG15212 | 1 | 0.186 | -0.945
NK7.1 | 1 | 2.66 | 0.438
drk (downstream of receptor kinase) | 1 | 1.01 | 1.55
CG10845 | 1 | 1.06 | 0.0813
sd (scalloped) | 1 | -0.994 | 0.287
sd (scalloped) | 2 | -0.837 | 0.292
CCDC53 (Coiled-coil domain containing 53) | 1 | -1.36 | -0.0074
Jon66Cii (Jonah 66Cii) | 1 | -0.24 | -0.148
CG7848 | 1 | -0.903 | 2.36
tx (retired record) | 1 | -3.91 | -0.674
EndoGI (Endonuclease G inhibitor) | 1 | -0.633 | -0.778
ND-13A (NADH dehydrogenase (ubiquinone) 13 kDa A subunit) | 1 | -0.128 | 0.448
Gfat1 (Glutamine:fructose-6-phosphate aminotransferase 1) | 1 | -0.463 | -0.335
CG8813 | 1 | 0.0337 | 1.36
lncRNA:CR32730 (long non-coding RNA:CR32730) | 1 | -0.00952 | 2.65
sordd2 + sordd1 | 1 | -0.837 | 0.47
CG13898 | 1 | -0.816 | -1.5
Prosbeta7 (Proteasome beta7 subunit) | 1 | -2.85 | 1.95
chrb (charybde) | 1 | 0.259 | -0.968
CG13871 | 1 | 0.105 | 4.28
CG14568 | 1 | 1.32 | -0.708
Tbp (TATA binding protein) | 1 | 2.92 | 6.09
Tbp (TATA binding protein) | 2 | 0.0467 | 0.028
CG7484 | 1 | 0.479 | 2.29
